Assay: Spectrofluorimetry studies: excitation and emission spectra and ratiometric response to metal ion binding
Assay type: physicochemical
Details: type of fluorescence response to metal ion (Ca^2+) binding
Experimental: The excitation and emission spectra of solutions of various ion indicators (concentration 1-2 μM) were recorded in 30 mM MOPS and 100 mM KCl buffers containing 0 to 200 nM free calcium ion. The binding constant values were calculated based on 8-10 data points taken in buffers covering the concentration range appropriate for the Kd value. Spectral curves for derivatives of Compound 7 (with different R substitutents) were recorded using a standard spectrofluorimeter.
FIGS. 1-3 show excitation and emission spectra for several of the tested compounds. […]

| Compound | Ratiometric Response |
| --- | --- |
| COc1cc(N(C)C)ccc1-c1nc2cc(OCCOc3cc(C)ccc3N(CC(=O)O)CC(=O)O)c(N(CC(=O)O)CC(=O)O)cc2o1 [Compound 7f] | emission |
| Cc1ccc(N(CC(=O)O)CC(=O)O)c(OCCOc2cc3nc(-c4ccc(N(C)C)cc4O)oc3cc2N(CC(=O)O)CC(=O)O)c1 [Compound 7g] | emission |
| Cc1ccc(N(CC(=O)O)CC(=O)O)c(OCCOc2cc3nc(-c4cc5c6c(c4)CCCN6CCC5)oc3cc2N(CC(=O)O)CC(=O)O)c1 [Compound 7h] | emission |
| Cc1ccc(N(CC(=O)O)CC(=O)O)c(OCCOc2cc3nc(-c4nc5ccccc5s4)oc3cc2N(CC(=O)O)CC(=O)O)c1 [Compound 7i] | excitation |
| Cc1ccc(N(CC(=O)O)CC(=O)O)c(OCCOc2cc3nc(-c4cccc(=O)[nH]4)oc3cc2N(CC(=O)O)CC(=O)O)c1 [Compound 7j] | excitation |
| Cc1ccc(N(CC(=O)O)CC(=O)O)c(OCCOc2cc3nc(-c4cc[n+]([O-])cc4)oc3cc2N(CC(=O)O)CC(=O)O)c1 [Compound 7k] | excitation-ratiometric response |
| Cc1ccc(N(CC(=O)O)CC(=O)O)c(OCCOc2cc3nc(-c4ccc5nonc5c4)oc3cc2N(CC(=O)O)CC(=O)O)c1 [Compound 7l] | excitaton |
| Cc1ccc(N(CC(=O)O)CC(=O)O)c(OCCOc2cc3nc(/C=C/c4ccc(N(C)C)c5ccccc45)oc3cc2N(CC(=O)O)CC(=O)O)c1 [Compound 7p] | non- |
| Cc1ccc(N(CC(=O)O)CC(=O)O)c(OCCOc2cc3nc(/C=C/c4cc5c6c(c4)CCCN6CCC5)oc3cc2N(CC(=O)O)CC(=O)O)c1 [Compound 7q] | non- |
| Cc1ccc(N(CC(=O)O)CC(=O)O)c(OCCOc2cc3nc(-c4ccc5cc(N(C)C)ccc5c4)oc3cc2N(CC(=O)O)CC(=O)O)c1 [Compound 7r] | non- |
| Cc1ccc(N(CC(=O)O)CC(=O)O)c(OCCOc2cc3nc(-c4cc5cc6c7c(c5oc4=O)CCCN7CCC6)oc3cc2N(CC(=O)O)CC(=O)O)c1 [Compound 7t] | non-ratiometric response and non- |
